Test results as given in the supplement of paper PMC4604168 (melanoma cell lines).
This is one part of the list. Many values rest on one well or one pass, so single values are uncertain.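 Imaging used 1,536-well plates; nuclei positive for cleaved PARP by antibody were divided by total DNA-stained nuclei to yield the apoptosis fraction. Doses for screening kept most cells viable, and cell lines differ markedly in resting and induced cleaved-PARP levels.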

These molecules were tested on G361 (assay: cleaved PARP positive nuclei fraction relative to DMSO control; melanoma cells; higher = more apoptosis). Conditions: library dose: low library concentration; 72 h.

SMILES | cleaved PARP positive nuclei fraction [%]
O=C(Nc1ccccc1)c1cc([N+](=O)[O-])ccc1Cl + O=S(=O)(c1ccccc1)N(CC(F)(F)F)c1ccc(C(O)(C(F)(F)F)C(F)(F)F)cc1 [T0901317] (first compound 2 µM, partner dose 1.4 µM) | 117
CN(C)S(=O)(=O)c1ccc2c(c1)/C(=C/c1cc3c([nH]1)CCCC3)C(=O)N2 + NCC(=O)Nc1ccc(-n2nc(C(F)(F)F)cc2-c2ccc3c(ccc4ccccc43)c2)cc1 [OSU03012] (first compound 0.4 µM, partner dose 1 µM) | 108
N#Cc1c(O)c2c(-c3ccc(-c4ccccc4O)cc3)csc2[nH]c1=O + O=S(=O)(c1ccccc1)N(CC(F)(F)F)c1ccc(C(O)(C(F)(F)F)C(F)(F)F)cc1 [T0901317] (first compound 2 µM, partner dose 1.4 µM) | 196
NCC(=O)Nc1ccc(-n2nc(C(F)(F)F)cc2-c2ccc3c(ccc4ccccc43)c2)cc1 + COc1cc2c(Oc3ccc4[nH]c(C)cc4c3F)ncnc2cc1OCCCN1CCCC1 [cediranib] (first compound 1 µM, partner dose 0.4 µM) | 111
CN(NC(=O)CC(=O)NN(C)C(=S)c1ccccc1)C(=S)c1ccccc1 + c1cc(-c2cnn3cc(-c4ccc(OCCN5CCCCC5)cc4)cnc23)ccn1 [Dorsomorphin] (first compound 0.006 µM, partner dose 0.4 µM) | 302
COc1cc2c(Oc3ccc4[nH]c(C)cc4c3F)ncnc2cc1OCCCN1CCCC1 [cediranib] + c1cc(-c2cnn3cc(-c4ccc(OCCN5CCCCC5)cc4)cnc23)ccn1 [Dorsomorphin] (first compound 0.4 µM, partner dose 0.4 µM) | 77.6
CN(NC(=O)CC(=O)NN(C)C(=S)c1ccccc1)C(=S)c1ccccc1 + N#Cc1c(O)c2c(-c3ccc(-c4ccccc4O)cc3)csc2[nH]c1=O [A769662] (first compound 0.006 µM, partner dose 2 µM) | 279
O=C(O)c1ccc(-c2c[nH]c3ncc(-c4ccccc4)cc23)cc1C1CCCC1 + CN(NC(=O)CC(=O)NN(C)C(=S)c1ccccc1)C(=S)c1ccccc1 [STA4783] (first compound 0.16 µM, partner dose 0.006 µM) | 175
CN(C)S(=O)(=O)c1ccc2c(c1)/C(=C/c1cc3c([nH]1)CCCC3)C(=O)N2 + CC(C)CCN1c2nc(Nc3cc(F)c(O)c(F)c3)ncc2N(C)C(=O)C1C [BID1870] (first compound 0.4 µM, partner dose 0.2 µM) | 147
CN(NC(=O)CC(=O)NN(C)C(=S)c1ccccc1)C(=S)c1ccccc1 + COc1cc2c(Oc3ccc4[nH]c(C)cc4c3F)ncnc2cc1OCCCN1CCCC1 [cediranib] (first compound 0.006 µM, partner dose 0.4 µM) | 71.8
COC(=O)c1sccc1S(=O)(=O)Nc1ccc(Nc2ccccc2)cc1OC + COc1ccc(-c2ccc3c(N4CCOCC4)nc(N4C[C@@H](C)O[C@@H](C)C4)nc3n2)cc1CO [KU0063794] (first compound 1 µM, partner dose 0.02 µM) | 149
COc1ccc2c(c1)CCC1C2CCC2(C)C(NCCCCCCN3C(=O)C=CC3=O)CCC12 (stereo not given) + COc1cc(N2CCC(N3CCN(C)CC3)CC2)ccc1Nc1ncc(Cl)c(Nc2ccccc2S(=O)(=O)C(C)C)n1 [NVP-TAE684] (first compound 0.4 µM, partner dose 0.08 µM) | 183
O=C(O)C(=O)Nc1sc2c(c1C(=O)O)CCNC2 + COc1cc(N2CCC(N3CCN(C)CC3)CC2)ccc1Nc1ncc(Cl)c(Nc2ccccc2S(=O)(=O)C(C)C)n1 [NVP-TAE684] (first compound 1.66667 µM, partner dose 0.08 µM) | 36
CCCCCCCCCCCC1=C(O)C(=O)C=C(O)C1=O [Embelin] + O=c1cc(-c2cccc3c2Sc2ccccc2S3)oc(N2CCOCC2)c1 [KU55933] (first compound 1.2 µM, partner dose 1 µM) | 146
COc1cc2ncnc(Nc3ccc(Oc4ccccc4)cc3)c2cc1OC + CC(C)CCN1c2nc(Nc3cc(F)c(O)c(F)c3)ncc2N(C)C(=O)C1C [BID1870] (first compound 2 µM, partner dose 0.2 µM) | 68.1

Random excerpt: 2 records from the list, in no set order.
SMILES | cleaved PARP positive nuclei fraction [%]
COc1ccc2c(c1)CCC1C2CCC2(C)C(NCCCCCCN3C(=O)C=CC3=O)CCC12 (stereo not given) + COc1cc(N2CCC(N3CCN(C)CC3)CC2)ccc1Nc1ncc(Cl)c(Nc2ccccc2S(=O)(=O)C(C)C)n1 [NVP-TAE684] (first compound 0.4 µM, partner dose 0.08 µM) | 183
CN(NC(=O)CC(=O)NN(C)C(=S)c1ccccc1)C(=S)c1ccccc1 + c1cc(-c2cnn3cc(-c4ccc(OCCN5CCCCC5)cc4)cnc23)ccn1 [Dorsomorphin] (first compound 0.006 µM, partner dose 0.4 µM) | 302
